Source: PubChem BioAssay AID504784 (Drosophila RNAi Screening Center, 2011)
The screen tested about 17,000 reagents; this is an unselected part of those that have a named target and a result. 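Each column is one replicate's B-score; the combined score over replicates was not deposited, so single values may mislead.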

Test: 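Search for regulators of lipid droplet storage in oleate-fed fly cells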 (primary screen)
System: Drosophila Kc167 embryonic cells
Reagent: long dsRNA against Drosophila genes, about 250 ng dsRNA per well
Timing: 4 days
Challenge: cells fed 400 µM oleic acid bound to BSA
Measured: 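Cells imaged and segmented; ratio of lipid droplet area to nuclear area, log-transformed, then normalised as a B-score over the screen; higher means more stored lipid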
Scale: droplet/nuclear area B-score: higher = more stored lipid (overstorage)

gene knocked down | DRSC id | droplet/nuclear area B-score, replicate 1 | droplet/nuclear area B-score, replicate 2 | droplet/nuclear area B-score, replicate 3
HINT1 (histidine triad nucleotide binding protein 1) | DRSC00548 | -1.27 | 1.28 | –
CG3419 (retired record) | DRSC04368 | 1.96 | 0.984 | –
CG3419 (retired record) | DRSC04369 | -0.477 | 1.51 | –
CG31463 | DRSC14346 | 0.0108 | -0.52 | –
qless | DRSC15103 | 1.4 | -0.14 | –
qless | DRSC15507 | 1.04 | -0.509 | –
Dscam4 (Down syndrome cell adhesion molecule 4) | DRSC08913 | -4.91 | 0.943 | –
Dscam4 (Down syndrome cell adhesion molecule 4) | DRSC10031 | 0.79 | 0.0529 | –
Dscam4 (Down syndrome cell adhesion molecule 4) | DRSC10329 | 3.43 | 2.42 | –
Dscam4 (Down syndrome cell adhesion molecule 4) | DRSC10765 | 0.842 | -2.77 | –
CG30323 | DRSC07656 | 0.75 | -0.00852 | –
pho (pleiohomeotic) | DRSC17219 | 1.68 | 0.722 | –
CG32829 | DRSC00961 | 5.01 | 0.0746 | –
CG32829 | DRSC22805 | 0.361 | 0.61 | –
dock (dreadlocks) | DRSC00812 | -0.826 | 1.71 | –
Ufsp2 (UFM1 specific peptidase 2) | DRSC10231 | -0.581 | -4.79 | 0.0912
Gr85a (Gustatory receptor 85a) | DRSC12760 | 0.106 | -1.22 | –
CSN7 (COP9 signalosome subunit 7) | DRSC06807 | -0.398 | -1.82 | –
CSN7 (COP9 signalosome subunit 7) | DRSC06808 | -0.766 | -2.18 | –
CG13068 | DRSC09951 | -0.552 | 0.318 | –
CG14000 | DRSC02332 | 0.814 | 1.32 | –
HmgZ (HMG protein Z) | DRSC03888 | 1.04 | -0.797 | –
HmgZ (HMG protein Z) | DRSC04620 | 4.94 | 0.526 | -0.605
CG1971 | DRSC15406 | -0.694 | 3.31 | –
CG32751 | DRSC21770 | -1.3 | 1.03 | –
S-Lap5 (Sperm-Leucylaminopeptidase 5) | DRSC06732 | 1.05 | -0.575 | –
Egfr (Epidermal growth factor receptor) | DRSC03871 | -0.0554 | -1.13 | –
Egfr (Epidermal growth factor receptor) | DRSC04613 | 1.48 | -0.062 | –
v (vermilion) | DRSC20383 | 0.458 | -0.691 | 0.554
Lcp4 (Larval cuticle protein 4) | DRSC07458 | -0.55 | 0.1 | –
amos (absent MD neurons and olfactory sensilla) | DRSC03484 | 1.09 | -0.0952 | –
CG32485 | DRSC22666 | 1.79 | 0.0539 | –
CheB42c (Chemosensory protein B 42c) | DRSC04972 | 0.702 | 1.99 | –
Cpsf73 (Cleavage and polyadenylation specificity factor 73) | DRSC16291 | 0.138 | 2.49 | –
CG31200 | DRSC15285 | 0.701 | -0.187 | –
Sec23 (Secretory 23) | DRSC12387 | -0.543 | -0.508 | -3.22
CG5506 | DRSC10511 | 0.000143 | 0.0566 | –

Targets above whose target name begins with H or h (3):
gene knocked down | DRSC id | droplet/nuclear area B-score, replicate 1 | droplet/nuclear area B-score, replicate 2 | droplet/nuclear area B-score, replicate 3
HINT1 (histidine triad nucleotide binding protein 1) | DRSC00548 | -1.27 | 1.28 | –
HmgZ (HMG protein Z) | DRSC03888 | 1.04 | -0.797 | –
HmgZ (HMG protein Z) | DRSC04620 | 4.94 | 0.526 | -0.605

Further reagents:
gene knocked down | DRSC id | droplet/nuclear area B-score, replicate 1 | droplet/nuclear area B-score, replicate 2 | droplet/nuclear area B-score, replicate 3
CG12477 | DRSC09886 | 2 | 1.88 | –
unc-45 (uncoordinated 45) | DRSC15449 | 1.38 | 0.992 | –
Aps (Aps pyrophosphatase) | DRSC10629 | -1.57 | 1.15 | –
Spn42Da (Serpin 42Da) | DRSC05025 | 0.104 | 0.261 | –
HP5 (Heterochromatin protein 5) | DRSC19773 | -1.21 | -0.533 | 0.499
Marcal1 | DRSC02718 | 0.292 | 0.952 | –
CG31898 | DRSC01019 | 0.0663 | -0.111 | –
CG14342 | DRSC00372 | -0.866 | -1.5 | –
Mad | DRSC00759 | -1.09 | -0.232 | –
CG12341 | DRSC06133 | -0.21 | 0.0859 | –
side-III (sidestep III) | DRSC12155 | -1.11 | -1.28 | –
side-III (sidestep III) | DRSC12263 | 2.24 | 0.225 | –
side-III (sidestep III) | DRSC12264 | -1.58 | -0.987 | –
park (parkin) | DRSC11618 | -0.205 | 0.0513 | 1.8
Ids (Iduronate 2-sulfatase) | DRSC08222 | 0.102 | -0.73 | –
SLC5A11 (Sodium/solute co-transporter-like 5A11) | DRSC03088 | 0.527 | -0.809 | –
CG15358 | DRSC00388 | -0.963 | 0.225 | –
Cda5 (Chitin deacetylase-like 5) | DRSC00003 | -1.41 | 0.4 | –
Cda5 (Chitin deacetylase-like 5) | DRSC00529 | 1.47 | -0.0176 | –
Cda5 (Chitin deacetylase-like 5) | DRSC00532 | -0.192 | -1.03 | –
Cda5 (Chitin deacetylase-like 5) | DRSC21330 | 2.06 | -0.13 | –
